# Literature values, collected in US7459439B2, “Granulysin peptides and methods of use thereof” (The Regents of the University of California, priority 2003, dated 2008).
# Some of these results come from one statement about several compounds together.
# Tested on: bacteria
# Details: synthetic peptides of granulysin, relative to granulysin; Ernst et al. (2000); cited from earlier work
substance,measurement,value
"granulysin peptide #31-50: Synthetic peptide of residues 31-50 of human granulysin, SEQ ID NO:2 (TRVCRTGRSRWRDVCRNFMR) (TRVCRTGRSRWRDVCRNFMR; H. sapiens)",anti-bacterial activity retained,50-80%
